Values from PubChem BioAssay AID504793 (Drosophila RNAi Screening Center, 2011).

- Purpose: 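Knock-downs allowing continued mitosis even though DNA is damaged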 (primary screen)
- Cell system: Drosophila S2R+ cells
- Reagents: long dsRNA against Drosophila genes, about 0.25 µg dsRNA per well
- Time to read-out: 4 days of dsRNA, then 4 hours of drug before read-out
- Challenge: doxorubicin 0.5 µM for 4 hours to cause double-strand breaks, in cells also given a low, harmless dose of dsRNA against nbs to sensitise the assay
- Measured: 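Mitotic index as the number of phospho-histone H3-positive cells in each well following doxorubicin, given as raw counts without normalisation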
- Reading the numbers: mitotic cells: higher = more cells in mitosis, weaker G2 arrest
- Active means: 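Genes are called active only when high mitotic counts were reproduced with independent dsRNAs and mitosis was checked for delay without damage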
- Calls: active = confirmed in follow-up tests; inactive = not confirmed
In all, the deposit lists about 23,000 reagents; shown is an unselected part of those that have a named target and a result. Of all reagents, 62 (0.27%) were called active. 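Calls come from follow-up tests whose scores are not deposited, so confirmed genes may have low counts here; counts are not normalised per plate.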 Raw values are not corrected between plates. Names joined by + are all predicted targets of the reagent.

The first 2 entries, ahead of the listing:
| gene | DRSC id | mitotic cells, replicate 1 | mitotic cells, replicate 2 | call |
| --- | --- | --- | --- | --- |
| Mnn1 (Menin 1) | DRSC03368 | 11 | – | inactive |
| Uba5 (Ubiquitin-like activating enzyme 5) | DRSC19775 | 13 | – | inactive |

Main list, from the first entry:
| gene | DRSC id | mitotic cells, replicate 1 | mitotic cells, replicate 2 | call |
| --- | --- | --- | --- | --- |
| Mnn1 (Menin 1) | DRSC03368 | 11 | – | inactive |
| Uba5 (Ubiquitin-like activating enzyme 5) | DRSC19775 | 13 | – | inactive |
| CG10055 | DRSC12503 | 6 | – | inactive |
| Non1 (Novel nucleolar protein 1) | DRSC05954 | 14 | – | inactive |
| dila (dilatory) | DRSC06607 | 3 | – | inactive |
| dila (dilatory) | DRSC26509 | 3 | – | inactive |
| Pgant2 (Polypeptide N-Acetylgalactosaminyltransferase 2) | DRSC00587 | 5 | – | inactive |
| NC2beta (Negative Cofactor 2beta) | DRSC01895 | 5 | – | inactive |
| NC2beta (Negative Cofactor 2beta) | DRSC25346 | 4 | – | inactive |
| CR16735 (pseudo) | DRSC15144 | 6 | – | inactive |
| CG11382 | DRSC18624 | 8 | – | inactive |
| CG32037 | DRSC10363 | 2 | – | inactive |
| ppk27 (pickpocket 27) | DRSC08168 | 7 | – | inactive |
| ppk27 (pickpocket 27) | DRSC22211 | 3 | – | inactive |
| CG31835 + CG42585 | DRSC01412 | 3 | – | inactive |
| NKAIN (Na,K-ATPase Interacting) | DRSC04531 | 4 | – | inactive |
| NKAIN (Na,K-ATPase Interacting) | DRSC22470 | 18 | – | inactive |
| NKAIN (Na,K-ATPase Interacting) | DRSC29918 | 5 | – | inactive |
| CtsK2 (Cathepsin K2) | DRSC06897 | 5 | – | inactive |
| CtsK2 (Cathepsin K2) | DRSC25927 | 11 | – | inactive |
| Efhc1.2 (EF-hand domain containing 1.2) | DRSC06027 | 3 | – | inactive |
| Jwa | DRSC02048 | 6 | – | inactive |
| Jwa | DRSC26655 | 8 | – | inactive |
| CG30151 | DRSC05888 | 10 | – | inactive |
| CG30151 | DRSC24759 | 3 | – | inactive |
| mim (missing-in-metastasis) | DRSC23045 | 8 | – | inactive |
| mim (missing-in-metastasis) | DRSC27684 | 2 | – | inactive |
| Cpr49Af (Cuticular protein 49Af) | DRSC07202 | 3 | – | inactive |
| Cpr49Af (Cuticular protein 49Af) | DRSC24397 | 2 | – | inactive |
| REG (Proteasome regulator gamma) | DRSC20273 | 11 | – | inactive |
| Cdk1 (Cyclin-dependent kinase 1) | DRSC03504 | 6 | – | inactive |
| CG31636 | DRSC02276 | 11 | – | inactive |
| CG31636 | DRSC24911 | 10 | – | inactive |
| Tsp42Eg (Tetraspanin 42Eg) | DRSC06112 | 9 | – | inactive |
| CG4074 | DRSC11752 | 2 | – | inactive |
| CG4074 | DRSC29915 | 4 | – | inactive |
| CG31198 | DRSC15891 | 3 | – | inactive |
| orion | DRSC18213 | 15 | – | inactive |
| orion | DRSC18214 | 14 | – | inactive |
| ec (echinus) | DRSC18658 | 11 | – | inactive |
| ec (echinus) | DRSC23902 | 5 | – | inactive |
| CG2765 | DRSC04315 | 2 | – | inactive |
| CR31822 (pseudo) | DRSC01510 | 5 | – | inactive |
| Mis12 | DRSC10299 | 5 | – | inactive |
| CG12035 | DRSC08238 | 2 | – | inactive |
| chif (chiffon) | DRSC03508 | 11 | – | inactive |
| Sas-4 (Spindle assembly abnormal 4) | DRSC12505 | 2 | – | inactive |
| CG3916 | DRSC15520 | 2 | – | inactive |
| CG3916 | DRSC26907 | 8 | – | inactive |
| tei (teiresias) | DRSC07616 | 10 | – | inactive |
| tei (teiresias) | DRSC23756 | 5 | – | inactive |
| CG33463 | DRSC22915 | 12 | – | inactive |
| CG33463 | DRSC29923 | 12 | – | inactive |
| Or35a (Odorant receptor 35a) | DRSC03389 | 11 | – | inactive |
| bgcn (benign gonial cell neoplasm) | DRSC04062 | 4 | – | inactive |
| bgcn (benign gonial cell neoplasm) | DRSC04063 | 7 | – | inactive |
| CG5500 | DRSC15820 | 5 | – | inactive |
| CG5500 | DRSC29450 | 9 | – | inactive |
| jub (Ajuba LIM protein) | DRSC19367 | 5 | – | inactive |
| jub (Ajuba LIM protein) | DRSC26225 | 10 | – | inactive |
| CG33337 | DRSC13632 | 6 | 14 | inactive |
| CG33337 | DRSC27000 | 4 | – | inactive |
| TfIIS (RNA polymerase II elongation factor) | DRSC03455 | 3 | – | inactive |
| TfIIS (RNA polymerase II elongation factor) | DRSC24533 | 12 | – | inactive |
| CG12224 | DRSC14480 | 11 | – | inactive |
| NO66 (Nucleolar protein 66) | DRSC18252 | 4 | – | inactive |
| CG8032 | DRSC16365 | 9 | – | inactive |
| CG8032 | DRSC29586 | 8 | – | inactive |
| CG31752 | DRSC22599 | 12 | – | inactive |
| CG13054 | DRSC09935 | 2 | – | inactive |
| CG13054 | DRSC29594 | 9 | – | inactive |
| spz4 (spatzle 4) | DRSC02410 | 2 | – | inactive |
| spz4 (spatzle 4) | DRSC27274 | 6 | – | inactive |
| CG12895 | DRSC06210 | 5 | – | inactive |
| CG12895 | DRSC25590 | 5 | – | inactive |
| EloB (Elongin B) | DRSC16663 | 8 | – | inactive |
| RtcB (RtcB RNA ligase) | DRSC03280 | 3 | – | inactive |
| CG17660 | DRSC00513 | 2 | – | inactive |
| Yip1d1 (Yip1 domain-containing 1) | DRSC02166 | 3 | – | inactive |
| CG7054 | DRSC16185 | 10 | – | inactive |
| CG7054 | DRSC26659 | 4 | – | inactive |
| Burs (Bursicon) | DRSC14595 | 12 | – | inactive |
| Nct (Nicastrin) | DRSC16172 | 9 | – | inactive |
| CG6055 | DRSC02923 | 10 | – | inactive |
| CG3199 | DRSC15467 | 4 | – | inactive |
| CG3199 | DRSC30060 | 1 | – | inactive |
| CG15728 | DRSC19694 | 2 | – | inactive |
| CG15728 | DRSC22868 | 12 | – | inactive |
| CG15728 | DRSC28662 | 5 | – | inactive |
| naz (nazgul) | DRSC14790 | 12 | – | inactive |
| naz (nazgul) | DRSC16199 | 5 | – | inactive |
| Dhpr (Dihydropteridine reductase) | DRSC11135 | 6 | – | inactive |
| CG15711 | DRSC06582 | 6 | – | inactive |
| CG32576 + UQCR-14 | DRSC19870 | 11 | – | inactive |
| CG11404 | DRSC11656 | 6 | – | inactive |
| CG11404 | DRSC27005 | 5 | – | inactive |
| wat (waterproof) | DRSC14854 | 4 | – | inactive |
| Prosbeta3 (Proteasome beta3 subunit) | DRSC16801 | 69 | – | inactive |
| Hipk (Homeodomain interacting protein kinase) | DRSC07885 | 10 | – | inactive |
| Hipk (Homeodomain interacting protein kinase) | DRSC23155 | 17 | – | inactive |
| CG5662 | DRSC19957 | 12 | – | inactive |
| Cenp-C (Centromeric protein-C) | DRSC14371 | 10 | – | inactive |
| Cenp-C (Centromeric protein-C) | DRSC29707 | 12 | – | inactive |
| PXo (P[[i]]-sensitive XPR1 orthologue) | DRSC09734 | 8 | – | inactive |
| Vps45 (Vacuolar protein sorting 45) | DRSC16398 | 11 | – | inactive |
| CG13365 | DRSC17899 | 10 | – | inactive |
| CG13365 | DRSC27043 | 5 | – | inactive |
| Tango6 (Transport and Golgi organization 6) | DRSC02671 | 25 | – | active |
| Tango6 (Transport and Golgi organization 6) | DRSC29389 | 17 | – | inactive |
| RtGEF (Rho-type guanine nucleotide exchange factor) | DRSC03604 | 5 | – | inactive |
| RtGEF (Rho-type guanine nucleotide exchange factor) | DRSC22207 | 17 | – | inactive |
